PubChem BioAssay AID1259274, Sanger Institute | 2017
Assay: 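Kinase knock-downs that cut colorectal cancer cell viability or boost drug killing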 (primary screen). Cell system: human RKO colorectal cancer cells. Reagents: siRNA pool against human genes. Conditions: anchor drugs BYL719 at 1 µM, cetuximab at 5 µg/ml or trametinib at 10 nM; DMSO vehicle as the no-drug arm. Measurement: 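Viability of cells versus control pool 2 (non-targeting) averaged across replicates; knock-down-only robust z-score; for every anchor drug (BYL719, cetuximab, trametinib) a synergy score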. Direction: viability z-score, siRNA alone: higher = more viable cells; low values mean essential gene. Hit rule: 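Essential when the robust viability z-score with siRNA only falls below -3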. Meaning of the calls: active = essential when knocked down alone; inactive = no change alone.
The whole screen tested 794 reagents; this is an unselected part. 11 of all reagents (1.4%) were called active. 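Calls rest on knock-down without drug only; synergy scores with anchor drugs were not used for the essential call.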 Not all columns of the deposit are shown. Not stated in the record: the amount of reagent, the time to read-out.

| target gene | viability z-score, siRNA alone | Call |
| --- | --- | --- |
| STK17B (GeneID 9262) | 0.409 | inactive |
| CILK1 (GeneID 22858) | 1.14 | inactive |
| NEK7 (GeneID 140609) | 1.19 | inactive |
| GSK3B (GeneID 2932) | 0.405 | inactive |
| EPHA4 (GeneID 2043) | -0.876 | inactive |
| CDKL3 (GeneID 51265) | 1.19 | inactive |
| PKIB (GeneID 5570) | 0.915 | inactive |
| RET (GeneID 5979) | -0.284 | inactive |
| STK38L (GeneID 23012) | -1.13 | inactive |
| SNRK (GeneID 54861) | 0.702 | inactive |
| MAP4K2 (GeneID 5871) | -0.484 | inactive |
| LMTK2 (GeneID 22853) | -0.875 | inactive |
| ATR (GeneID 545) | 1.15 | inactive |
| RELA (GeneID 5970) | -0.473 | inactive |
| PANK4 (GeneID 55229) | -0.00632 | inactive |
| PRKAA1 (GeneID 5562) | 0.322 | inactive |
| PHKG2 (GeneID 5261) | 1.19 | inactive |
| STRADA (GeneID 92335) | -0.0826 | inactive |
| PRKAB2 (GeneID 5565) | -0.00849 | inactive |
| JAK3 (GeneID 3718) | 0.781 | inactive |
| FES (GeneID 2242) | -2.19 | inactive |
| TRIM27 (GeneID 5987) | -0.418 | inactive |

Taken from above.
Under “Call”, PANK4 (GeneID 55229) reads inactive
For “Call”, LMTK2 (GeneID 22853) has inactive
For “Call”, NEK7 (GeneID 140609) is entered as inactive
Under “viability z-score, siRNA alone”, PRKAB2 (GeneID 5565) is entered as -0.00849

Continued.
| target gene | viability z-score, siRNA alone | Call |
| --- | --- | --- |
| STK25 (GeneID 10494) | -2.37 | inactive |
| DYRK1B (GeneID 9149) | 0.0583 | inactive |
| NUAK2 (GeneID 81788) | 0.799 | inactive |
| PAK6 (GeneID 56924) | 1.19 | inactive |
| ROCK2 (GeneID 9475) | 0.513 | inactive |
| PIKFYVE (GeneID 200576) | -0.327 | inactive |
| AK7 (GeneID 122481) | -1.89 | inactive |
| N4BP2 (GeneID 55728) | 0.267 | inactive |
| BMPR2 (GeneID 659) | -0.241 | inactive |
| PIK3R4 (GeneID 30849) | -0.616 | inactive |
| POLR2B (GeneID 5431) | -4.86 | active |
| NEK5 (GeneID 341676) | 0.98 | inactive |
